In publication doi:10.1101/2020.04.22.053561:
Results are given in words; binding and its absence hold for the method and conditions named. Binding seen in cells or lysates may run through a third protein. A yes stands for co-enrichment or nearness to the bait. Other partners may have been found.

Target: T1, BCL9 (full-length, control tumors) (mouse (endogenous in mouse tumors)) (UniProt Q9D219)
T1 sequence: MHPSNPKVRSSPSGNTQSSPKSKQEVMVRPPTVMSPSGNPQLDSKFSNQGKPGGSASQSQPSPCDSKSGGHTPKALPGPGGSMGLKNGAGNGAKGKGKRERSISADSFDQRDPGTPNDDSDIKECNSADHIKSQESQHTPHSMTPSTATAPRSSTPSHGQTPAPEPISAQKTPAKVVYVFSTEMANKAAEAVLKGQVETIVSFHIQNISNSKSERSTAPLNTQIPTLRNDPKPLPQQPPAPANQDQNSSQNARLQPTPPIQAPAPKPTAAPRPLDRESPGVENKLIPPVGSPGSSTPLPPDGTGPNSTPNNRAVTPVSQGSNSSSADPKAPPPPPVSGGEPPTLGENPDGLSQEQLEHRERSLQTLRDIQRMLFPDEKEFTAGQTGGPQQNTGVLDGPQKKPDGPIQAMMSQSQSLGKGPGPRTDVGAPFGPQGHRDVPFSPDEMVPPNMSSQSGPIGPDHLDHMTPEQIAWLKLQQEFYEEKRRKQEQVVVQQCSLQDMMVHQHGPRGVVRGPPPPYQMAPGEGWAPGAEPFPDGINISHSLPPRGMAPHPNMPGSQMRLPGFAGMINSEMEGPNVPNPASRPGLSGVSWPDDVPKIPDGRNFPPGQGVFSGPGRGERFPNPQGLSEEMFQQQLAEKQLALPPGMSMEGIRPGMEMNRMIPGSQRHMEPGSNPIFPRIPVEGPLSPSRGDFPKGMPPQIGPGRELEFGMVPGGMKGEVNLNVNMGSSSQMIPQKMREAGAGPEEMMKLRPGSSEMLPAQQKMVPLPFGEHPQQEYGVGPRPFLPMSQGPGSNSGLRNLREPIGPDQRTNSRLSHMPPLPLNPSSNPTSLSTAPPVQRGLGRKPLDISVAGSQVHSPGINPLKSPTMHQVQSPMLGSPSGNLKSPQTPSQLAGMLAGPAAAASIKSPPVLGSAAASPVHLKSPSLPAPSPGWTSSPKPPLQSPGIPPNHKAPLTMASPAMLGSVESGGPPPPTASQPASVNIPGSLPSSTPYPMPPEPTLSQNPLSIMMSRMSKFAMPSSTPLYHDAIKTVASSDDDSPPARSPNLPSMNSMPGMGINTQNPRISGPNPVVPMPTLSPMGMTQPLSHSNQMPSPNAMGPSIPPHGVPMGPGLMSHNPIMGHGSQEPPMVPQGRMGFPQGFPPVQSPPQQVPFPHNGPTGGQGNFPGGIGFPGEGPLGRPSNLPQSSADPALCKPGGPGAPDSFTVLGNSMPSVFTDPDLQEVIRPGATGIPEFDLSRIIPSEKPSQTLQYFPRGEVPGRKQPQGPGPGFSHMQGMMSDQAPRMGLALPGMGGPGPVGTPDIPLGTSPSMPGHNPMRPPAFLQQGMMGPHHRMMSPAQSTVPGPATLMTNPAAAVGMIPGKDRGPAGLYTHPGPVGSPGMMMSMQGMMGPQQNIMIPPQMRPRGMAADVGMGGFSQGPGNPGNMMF
Assay: affinity purification with mass spectrometry

- binding: binds
B1: TBX3 (endogenous, mouse tumors) (protein, UniProt P70324 1-741)
chain: MSLSMRDPVIPGTSMAYHPFLPHRAPDFAMSAVLGHQPPFFPALTLPPNGAAALSLPGALAKPIMDQLVGAAETGIPFSSLGPQAHLRPLKTMEPEEDVEDDPKVHLEAKELWDQFHKRGTEMVITKSGRRMFPPFKVRCSGLDKKAKYILLMDIIAADDCRYKFHNSRWMVAGKADPEMPKRMYIHPDSPATGEQWMSKVVTFHKLKLTNNISDKHGFTLAFPSDHATWQGNYSFGTQTILNSMHKYQPRFHIVRANDILKLPYSTFRTYLFPETEFIAVTAYQNDKITQLKIDNNPFAKGFRDTGNGRREKRKQLTLQSMRVFEERHKKETSDESSSEQAAFNCFAQASSPAVSIVGTSNLKDLCPSEAESDAEAESKEEHGPEACDAAKISTTTAEEPGRDKGSPATRAQLFPAEPSRARDTARLDKASPDSRHSPATISSSTRVPGADERRSPGREGPVATKVDEARAIPAKDAFAPLSVQTDATAHLAQGPLPGLGFAPGLAGQQFFNGHPLFLHPGQFAMGGAFSSMAAGMGPLLATVSGASTGVSGLESTAMASAAAAQGLSGASAATLPFHLQQHVLASQGLAMSPFGSLFPYPYTYMAAAAAASTAAASSSVHRHPFLNLNSMRPRLRYSPYSIPVPVPDSSSLLATALPSMASAAGPLDGKAAALAASPASVAVDSGSELNSRSSTLSSGSVSLSPKLCSEKEAATSELQSIQRLVSGLEAKPDRSCSGSP
